PubChem BioAssay AID493246 – Drosophila RNAi Screening Center – 2011
Purpose: 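Genes fly cells need to grow and stay alive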 (primary screen). Cell system: Drosophila Kc and S2R+ cells. Reagent: long dsRNA against Drosophila genes. Measured: 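Raw, unnormalised count of remaining cells in each well; per-plate z-scores of cell number underlie the calls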. Direction: Kc cell number and S2R+ cell number: higher = more cells remaining. Rule for the call: 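Counted as a hit if cell number falls by a z-score of at least 3 within its plate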.
The screen tested about 21,000 reagents; shown is an unselected part of those that have a named target and a result. Of all reagents, 429 (2%) were called active. 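Values are raw and not normalised between plates; calls rest on per-plate z-scores that were not deposited.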 Reagent sequences are not shown. The record does not give: the amount of reagent, the time to read-out.

CG12377 (retired record) [DRSC11671]
- Kc cell number, rep 1: 1.78e6
- Kc cell number, rep 2: 2.01e6
- S2R+ cell number, rep 1: 1.37e6
- S2R+ cell number, rep 2: 1.34e6
- Outcome: inactive

CG12377 (retired record) [DRSC11672]
- Kc cell number, rep 1: 1.81e6
- Kc cell number, rep 2: 1.94e6
- S2R+ cell number, rep 1: 1.32e6
- S2R+ cell number, rep 2: 1.42e6
- Outcome: inactive

CG12054 [DRSC14467]
- Kc cell number, rep 1: 2.04e5
- S2R+ cell number, rep 1: 4.56e5
- Outcome: active

yata [DRSC15408]
- Kc cell number, rep 1: 1.56e6
- Kc cell number, rep 2: 1.57e6
- S2R+ cell number, rep 1: 1.03e6
- S2R+ cell number, rep 2: 1.11e6
- Outcome: inactive

Odc2 [DRSC07483]
- Kc cell number, rep 1: 1.46e6
- Kc cell number, rep 2: 1.52e6
- S2R+ cell number, rep 1: 1.25e6
- S2R+ cell number, rep 2: 1.34e6
- Outcome: inactive

An excerpt of the results above, for reference:
yata [DRSC15408]
- Kc cell number, rep 1: 1.56e6
- Kc cell number, rep 2: 1.57e6
- S2R+ cell number, rep 1: 1.03e6
- S2R+ cell number, rep 2: 1.11e6
- Outcome: inactive

Odc2 [DRSC07483]
- Kc cell number, rep 1: 1.46e6
- Kc cell number, rep 2: 1.52e6
- S2R+ cell number, rep 1: 1.25e6
- S2R+ cell number, rep 2: 1.34e6
- Outcome: inactive

The listing continues:
Tis11 [DRSC20293]
- Kc cell number, rep 1: 4.02e5
- S2R+ cell number, rep 1: 5.68e5
- Outcome: inactive

CG13375 [DRSC18621]
- Kc cell number, rep 1: 1.50e6
- Kc cell number, rep 2: 1.53e6
- S2R+ cell number, rep 1: 1.06e6
- S2R+ cell number, rep 2: 1.24e6
- Outcome: inactive

CG1544 [DRSC15036]
- Kc cell number, rep 1: 4.79e5
- S2R+ cell number, rep 1: 8.14e5
- Outcome: inactive

bru3 [DRSC09280]
- Kc cell number, rep 1: 1.38e6
- Kc cell number, rep 2: 1.44e6
- S2R+ cell number, rep 1: 9.73e5
- S2R+ cell number, rep 2: 1.17e6
- Outcome: inactive

bru3 [DRSC09687]
- Kc cell number, rep 1: 1.65e6
- Kc cell number, rep 2: 1.73e6
- S2R+ cell number, rep 1: 1.28e6
- S2R+ cell number, rep 2: 1.26e6
- Outcome: inactive

bru3 [DRSC09887]
- Kc cell number, rep 1: 1.30e6
- Kc cell number, rep 2: 1.28e6
- S2R+ cell number, rep 1: 1.35e6
- S2R+ cell number, rep 2: 1.49e6
- Outcome: inactive

CG33631 [DRSC12763]
- Kc cell number, rep 1: 1.33e6
- Kc cell number, rep 2: 1.51e6
- S2R+ cell number, rep 1: 1.06e6
- S2R+ cell number, rep 2: 1.19e6
- Outcome: inactive

CG30016 [DRSC05242]
- Kc cell number, rep 1: 1.41e6
- Kc cell number, rep 2: 1.36e6
- S2R+ cell number, rep 1: 9.89e5
- S2R+ cell number, rep 2: 1.13e6
- Outcome: inactive

CG16903 [DRSC18561]
- Kc cell number, rep 1: 1.52e6
- Kc cell number, rep 2: 1.49e6
- S2R+ cell number, rep 1: 9.71e5
- S2R+ cell number, rep 2: 1.15e6
- Outcome: inactive
